No constants are given. Whether binding was seen depends on the method and setting. Some entries that bind do so weakly or less than the wild type.
Molecular target: human CD79b fused with an Fc domain at the C-terminus (printed at paragraph 314 as Human CD79a fused with an Fc domain) (human) (UniProt P40259)
Assay: binding to huCD79b, method not named at this place (data not shown)

Sequences of proteins named here, by UniProt entry; tags and fusion partners are left off. A change or cut given only in a name is not applied to a line headed by its entry.
UniProt P40259: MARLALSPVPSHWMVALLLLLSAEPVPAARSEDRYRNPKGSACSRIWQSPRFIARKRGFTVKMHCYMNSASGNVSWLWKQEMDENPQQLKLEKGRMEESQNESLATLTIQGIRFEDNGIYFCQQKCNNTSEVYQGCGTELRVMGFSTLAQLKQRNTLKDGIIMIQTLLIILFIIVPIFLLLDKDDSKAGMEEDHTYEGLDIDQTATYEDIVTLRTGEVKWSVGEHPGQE

binding: binds
B1: CD79b.A7.v14b (antibody, V domains shown)
VH: EVQLVQSGAEVKKPGASVKVSCKASGYTFTTYYMNWVRQAPGQGLEWIGMIDPSDSETHYNQKFQGRATLTVDTSTSTAYLELSSLRSEDTAVYYCSRSLAFWGQGTLVTVSS
VL: DIVMTQTPLSLPVTPGQPASISCKSSQSLLDSDGKTYLNWLLQKPGQSPQSLIYLVSKLDSGVPDRFSGSGSGTDFTLKISRVEAEDVGVYYCWQGTHFPQTFGQGTKVEIK

From patent publication US20160159906A1
